## Melanoma cell counts after drug treatment

From a melanoma drug combination screen (doi:10.1371/journal.pone.0140310); values rounded.

Compounds and concentrations:
lapatinib, 800 nM: CS(=O)(=O)CCNCc1ccc(-c2ccc3ncnc(Nc4ccc(OCc5cccc(F)c5)c(Cl)c4)c3c2)o1
PLX4720, 80 nM: CCCS(=O)(=O)Nc1ccc(F)c(C(=O)c2c[nH]c3ncc(Cl)cc23)c1F
lenalidomide, 1000 nM: Nc1cccc2c1CN(C1CCC(=O)NC1=O)C2=O (stereo not shown)
MK-2206, 400 nM: NC1(c2ccc(-c3nc4ccn5c(=O)[nH]nc5c4cc3-c3ccccc3)cc2)CCC1
FK866, 10 nM: O=C(/C=C/c1cccnc1)NCCCCC1CCN(C(=O)c2ccccc2)CC1
ENMD-2076, 40 nM: Cc1cc(Nc2cc(N3CCN(C)CC3)nc(/C=C/c3ccccc3)n2)n[nH]1
cisplatin, 1600 nM: N.N.[Cl][Pt][Cl]
tozasertib, 6 nM: Cc1cc(Nc2cc(N3CCN(C)CC3)nc(Sc3ccc(NC(=O)C4CC4)cc3)n2)n[nH]1
BI-78D3, 200 nM: O=c1[nH]nc(Sc2ncc([N+](=O)[O-])s2)n1-c1ccc2c(c1)OCCO2
stibogluconate, 2000 nM: O=C(O)[C@@H]1[O][Sb](=[O])([O][Sb]2(=[O])[O][C@H]([C@H](O)CO)[C@H](O)[C@H](C(=O)O)[O]2)[O][C@H]([C@H](O)CO)[C@@H]1O (stereo partly shown)
erlotinib, 800 nM: C#Cc1cccc(Nc2ncnc3cc(OCCOC)c(OCCOC)cc23)c1
fludarabine, 200 nM: Nc1nc(F)nc2c1ncn2[C@@H]1O[C@H](CO)[C@@H](O)[C@@H]1O
VX-702, 400 nM: NC(=O)c1ccc(N(C(N)=O)c2c(F)cccc2F)nc1-c1ccc(F)cc1F

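The test systems are human melanoma cell lines, treated with two drugs together for 72 h and then stained and imaged. Each value is the count of nuclei relative to DMSO-treated wells, in %, so that 100 equals the control. Concentrations were fixed for each drug; these are the lower of two levels, a fifth of the higher. The file gives one value for each pair and line, without errors, so small differences may be noise.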 Only some of the drugs and lines screened are listed, without regard to their results. An entry leaves out what has no value listed here. A dash means that no value is listed here.

| Drugs | A375 | MEL-HO | IST-MEL1 | A2058 | G-361 | LB2518-MEL | A101D | COLO 792 |
|---|---|---|---|---|---|---|---|---|
| lenalidomide + cisplatin | 98.9 | 112 | 98.1 | 103 | 116 | 100 | 95.5 | 101 |
| PLX4720 + MK-2206 | 62.4 | 72.9 | 90.7 | 89.0 | 78.4 | 113 | 86.3 | 69.0 |
| PLX4720 + tozasertib | 74.7 | 86.9 | 97.4 | 108 | 98.3 | 92.3 | 114 | 81.8 |
| VX-702 + MK-2206 | 97.2 | 95.3 | 85.1 | 94.1 | 81.8 | 79.4 | 88.1 | 56.0 |
| cisplatin + stibogluconate | 85.2 | 95.0 | 103 | 93.8 | 96.3 | 100 | 70.7 | 95.1 |
| fludarabine + stibogluconate | 25.9 | 93.4 | 87.9 | 89.0 | 88.8 | 82.9 | 103 | 74.5 |
| VX-702 + ENMD-2076 | 84.5 | 117 | 101 | 112 | 110 | 98.5 | 115 | 90.4 |
| BI-78D3 + tozasertib | 93.3 | 103 | 98.9 | 96.3 | 100 | 116 | 101 | 92.8 |
| erlotinib + BI-78D3 | 104 | 90.9 | 94.1 | 95.7 | 86.0 | 101 | 96.2 | 78.5 |
| FK866 + BI-78D3 | 92.0 | 50.3 | 61.3 | 97.5 | 12.7 | 105 | 123 | 58.7 |
| lapatinib + lenalidomide | 97.4 | 109 | 109 | 99.8 | 102 | - | 102 | 83.8 |
| stibogluconate + MK-2206 | 94.2 | 100 | 92.9 | 96.2 | 87.4 | 116 | 99.8 | 101 |
| PLX4720 + erlotinib | 73.0 | 95.9 | 87.0 | 102 | 67.8 | 106 | 86.1 | 95.3 |
| PLX4720 + fludarabine | 17.7 | 99.3 | 96.7 | 110 | 95.8 | 111 | 93.9 | 94.8 |
| erlotinib + VX-702 | 106 | 92.0 | 103 | 98.5 | 94.3 | 89.0 | 96.4 | 71.6 |
| fludarabine + FK866 | 24.7 | 53.5 | 69.8 | 99.2 | 12.4 | - | 91.3 | 47.3 |
| VX-702 + lapatinib | 95.9 | 97.7 | 103 | 90.5 | 92.3 | 125 | 94.6 | 74.3 |
| erlotinib + cisplatin | 115 | 105 | 103 | 107 | 96.0 | 92.2 | 81.1 | 97.9 |
| MK-2206 + ENMD-2076 | 99.7 | 82.7 | 88.3 | 89.7 | 87.9 | 79.8 | 74.9 | 61.3 |
| FK866 + cisplatin | 83.8 | 36.1 | 39.4 | 100 | 3.3 | 84.5 | 97.0 | 38.4 |
| fludarabine + erlotinib | 16.2 | 86.8 | 80.7 | 80.7 | 79.9 | 100 | 91.1 | 70.2 |
| ENMD-2076 + stibogluconate | 93.1 | 110 | 101 | 105 | 109 | 81.7 | 102 | 102 |
| stibogluconate + BI-78D3 | 89.1 | 102 | 94.9 | 92.2 | 102 | 133 | 98.7 | 98.4 |
| cisplatin + lapatinib | 97.2 | 115 | 95.2 | 89.9 | 98.2 | 106 | 111 | 86.5 |
| stibogluconate + lenalidomide | 82.0 | 108 | 99.3 | 97.1 | 106 | 74.4 | 96.2 | 83.5 |
| lapatinib + BI-78D3 | 92.4 | 95.9 | 102 | 72.8 | 101 | - | 108 | 77.0 |
| lapatinib + ENMD-2076 | 93.0 | 94.8 | 98.5 | 89.0 | 91.0 | 83.8 | 79.5 | 62.9 |
| FK866 + VX-702 | 83.2 | 44.7 | 69.7 | 114 | 8.6 | 83.2 | 87.3 | 48.1 |
| FK866 + MK-2206 | 84.9 | 43.0 | 58.3 | 99.4 | 8.9 | 80.4 | 94.2 | 52.0 |
| MK-2206 + tozasertib | 80.9 | 99.9 | 92.6 | 106 | 98.8 | 84.0 | 95.8 | 68.5 |
| lenalidomide + fludarabine | 7.9 | 93.5 | 91.1 | 87.7 | 86.9 | 114 | 96.3 | 86.6 |
| FK866 + erlotinib | 81.8 | 48.2 | 59.4 | 109 | 6.1 | - | 82.9 | 43.4 |
| tozasertib + lenalidomide | 94.5 | 97.1 | 102 | 102 | 109 | 99.2 | 97.8 | 99.1 |
| BI-78D3 + MK-2206 | 91.9 | 90.2 | 102 | 114 | 101 | 106 | 90.4 | 82.4 |

The first 3 entries again:

* lenalidomide + cisplatin : A375: 98.9; MEL-HO: 112; IST-MEL1: 98.1; A2058: 103; G-361: 116; LB2518-MEL: 100; A101D: 95.5; COLO 792: 101
* PLX4720 + MK-2206 : A375: 62.4; MEL-HO: 72.9; IST-MEL1: 90.7; A2058: 89.0; G-361: 78.4; LB2518-MEL: 113; A101D: 86.3; COLO 792: 69.0
* PLX4720 + tozasertib : A375: 74.7; MEL-HO: 86.9; IST-MEL1: 97.4; A2058: 108; G-361: 98.3; LB2518-MEL: 92.3; A101D: 114; COLO 792: 81.8